# Primary screen of a compound library

Measurements from “University of Dundee, Small-Polar-MMV Screening Library” (2021), ChEMBL document CHEMBL3988442.

Results are given as percent effect.
The controls that fix the scale are not given in the record; negative values are as filed.
The compounds are a random part of those screened.

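Whole-parasite assay of Trypanosoma brucei over 72 hours; the read-out is not stated. Tested at 30 µM. Higher reads as stronger inhibition (inferred: compounds with an IC50 in retests scored well above the rest). Values scatter widely below zero; nearly all retest evidence comes from the higher of the two concentrations used. About 64,000 compounds were tested under these conditions; 1.5% (about 940) showed 50% or more at least once.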

| # | Compound | percent effect |
|---|---|---|
| 1 | `CN1N=C(C(=O)N2CCCC(CCc3c(F)cccc3F)C2)CCC1=O` (configuration not stated) | 9.657 |
| 2 | `O=C(CNC(=O)C1(c2ccc(F)cc2F)CCC1)Nc1ccccn1` | -1.028 |
| 3 | `O=C1CC(c2cccnc2)c2c(sc3c2CCCC3)N1` (configuration not stated) | -33.58 |
| 4 | `CS(=O)(=O)N1CCCCC1CCc1ccc(O)cc1` (configuration not stated) | -43.62 |
| 5 | `COc1ccc(NC(=O)c2cnc(C3CCN(C)CC3)nc2C)cc1` | -7.704 |
| 6 | `CC(C)C(=O)NCCc1nc(-c2ccncc2)n[nH]1` | -8.904 |
| 7 | `Cc1cc(C(=O)N[C@@H]2CCC[C@@H](N3CCOCC3)[C@@H]2O)no1` | -3.031 |
| 8 | `Cc1cccc(NC(=O)[C@@H]2CCCN2Cc2nnc(C(C)C)n2C)n1` | 22.24 |
| 9 | `Cc1c(C)n(Cc2ccccn2)c2nc3c(c(N)c12)CCCC3` | 14.96 |
| 10 | `Cc1nnc(SCCNC(=O)CC2CCc3ccccc32)s1` (configuration not stated) | -16.11 |
| 11 | `CC(C)CN(CC(O)c1ccccc1)C(=O)NC(C)C` (configuration not stated) | -28.25 |
| 12 | `CCOc1ccc(CC(=O)N(CCC(=O)OC)CC2CCCO2)cc1` (configuration not stated) | -22.89 |
| 13 | `CS(=O)(=O)N1CCCC12CCN(Cc1nccs1)C2.O=C(O)C(F)(F)F` (configuration not stated) | -14.52 |
| 14 | `O=C1CC(c2ccc(O)cc2)c2sc(C(=O)O)c(-c3ccccc3)c2N1` (configuration not stated) | -1.649 |
| 15 | `Cl.Cl.Cl.OC(CN1CCN(Cc2cccnc2)CC1)c1cccs1` (configuration not stated) | 8.05 |
| 16 | `C[C@@H]1CN(Cc2ccncc2)C[C@@]1(O)C1CC1` | -22.42 |
| 17 | `CN(Cc1cccs1)C(=O)c1ccc(=O)n(C)c1` | 98.98 |
| 18 | `CC(C)OCCCNC(=O)N(C)C(C)c1ccc(-n2cncn2)cc1` (configuration not stated) | -42.74 |
| 19 | `O=C(COC(=O)Cc1cccs1)NCc1cccc(NC(=O)C2CC2)c1` | 8.003 |
| 20 | `Cc1ccc(C(=O)N(C)Cc2cscn2)c(=O)[nH]1` | 16.36 |
| 21 | `CC(C)c1n[nH]c(C2CN(C(=O)CCn3ccccc3=O)CCO2)n1` (configuration not stated) | 52.13 |
| 22 | `Cc1nc(COc2ccc(OCC(N)=O)cc2)oc1C` | -50.95 |
| 23 | `Cc1nn(C)c(C)c1OCC(=O)NCc1cccc(C(=O)O)c1` | -6.875 |
| 24 | `CCN(CC(=O)NC)S(=O)(=O)N1CCCCC1` | -27.25 |
| 25 | `c1ccc(CCCN2CC[C@H](c3nnc(-c4ccccc4)o3)C2)cc1` | -22.72 |
| 26 | `O=S(=O)(NCCSc1nncn1C1CC1)c1ccccc1` | -25.59 |
| 27 | `COc1ccc(N2CCN(C(=O)CCn3nnnc3C)CC2(C)C)cc1` | -32.15 |
| 28 | `CCOCCN1CCN(Cc2nc(C)no2)CC1CC` (configuration not stated) | -29.05 |
| 29 | `CC(=O)Nc1cccc(C(=O)N(C)C(C)Cc2cc(C)ccn2)c1` (configuration not stated) | -19.17 |
| 30 | `Cc1cc(OCC(=O)N2CCCC(c3nccs3)C2)no1` (configuration not stated) | -18.75 |
| 31 | `CC(C)c1nc(CNc2ccc(N3CCC(CO)CC3)cn2)cs1` | -20.03 |
| 32 | `CCO[C@H]1C[C@@H](O)C12CCN(C(=O)CN1CCCCCC1=O)CC2` | -5.253 |
| 33 | `CCCN1C(=O)C2(CCCCC2)NC1c1cn(C)c(=O)n(C)c1=O` (configuration not stated) | 3.547 |
| 34 | `COCC1CN(C(=O)c2ccco2)Cc2cn(C)nc21.O=C(O)C(F)(F)F` (configuration not stated) | -55.78 |
| 35 | `O=C(O)C(F)(F)F.[H][C@@]12C[C@H](C(=O)NCc3ccccc3)[C@@]([H])(CN(CCC(C)C)C1)O2` | 29.18 |
| 36 | `CN(CCC(F)(F)F)C(=O)c1nc(S(C)(=O)=O)n2ccccc12` | -13.48 |
| 37 | `CC(C)N1CCC2(C=C(C(=O)NC3CC3)c3ccccc32)CC1.O=C(O)C(F)(F)F` | -15.37 |
| 38 | `COc1cccc(CC2CN(C3CCCCC3)CCO2)c1` (configuration not stated) | -41.67 |
| 39 | `[H][C@]12CC[C@]([H])(CN(S(=O)(=O)c3ccccc3)C1)N(Cc1cscn1)C2=O` | -21.44 |
| 40 | `CC(C)n1cnnc1C1CCCN(S(=O)(=O)CCCF)C1` (configuration not stated) | -28.52 |
| 41 | `Cc1noc(C2CCN(C(=O)c3ccc(NC4CC4)nc3)CC2)n1` | -14.55 |
| 42 | `Cc1nc(CNC(=O)N2CCN(c3ccc(Cl)cn3)CC2)no1` | 7.26 |
| 43 | `Cc1cccc(NC(=O)CN2C(=O)CC(C)(C)c3ccccc32)n1` | 9.955 |
| 44 | `CC(=O)N1CCC(N2CCOC(CC3CCCCC3)C2)CC1` (configuration not stated) | 3.107 |
| 45 | `CN(C)CCSc1ccc(NC(=O)c2nccn3ccnc23)cc1` | -16.54 |
| 46 | `O=C(O)c1csc(S(=O)(=O)N2CCCc3cc(OC(F)F)ccc32)c1` | 0.113 |
| 47 | `Cc1cc(CN2CCC3(CC2)CC(Nc2ncccn2)CO3)nn1C.O=C(O)C(F)(F)F` (configuration not stated) | -36.99 |
| 48 | `O=C(O)C(F)(F)F.O=C(O)C(F)(F)F.[H][C@@]12CCN(c3ccc(C)nn3)C[C@]1([H])[C@@H](CN(C)Cc1ccco1)OC2` | -12.13 |
| 49 | `[H][C@]12CCC(=O)N(C)[C@@]1(C)CCCCN2C(=O)CCn1nccc1C` | -4.007 |
| 50 | `COc1ccccc1C(=O)Nc1c(F)c(C(=O)NC2CCCC2)nn1C` | -1.053 |
| 51 | `CC(C)(C)c1nc(CNC2CCN(S(C)(=O)=O)CC2)cs1` | 13.91 |
| 52 | `Cn1c(=O)[nH]c(=O)c2c1nc1n2CC(c2ccc(Br)cc2)O1` (configuration not stated) | -2.642 |
| 53 | `CN1CCc2cc(C(=O)N(C)C)c(NCC3CC3)nc2CC1.O=C(O)C(F)(F)F.O=C(O)C(F)(F)F` | -47.63 |
| 54 | `COc1ccc(NC2CCc3c2[nH]c(=O)n(C2CCCCC2)c3=O)cc1` (configuration not stated) | -20.13 |
| 55 | `CCN(CC)C(=O)C1CCCN1C(=O)c1cccc(-n2cnnn2)c1` (configuration not stated) | -5.841 |
| 56 | `Nc1cc(-c2cc[nH]n2)nc(N2CCCC2)n1` | -81.29 |
| 57 | `CN(C)c1cc(C(=O)NCCc2n[nH]c(=O)[nH]2)ccn1` | 18.35 |
| 58 | `Cc1nccc(-c2ccccc2)c1C(=O)N1CC[C@](C)(O)[C@H](C)C1` | -18.31 |
| 59 | `COc1ccc(NC2CCCN(Cc3cnc(N(C)C)s3)C2)cc1` (configuration not stated) | 1.826 |
| 60 | `Cc1c(NCC(C)(C)C)cccc1C(=O)NCc1ncnn1C` | -18.18 |
| 61 | `CC(C)N1CCC2(CCNCC2)C1=O.Cl` | -13.71 |
| 62 | `Cn1nc(C2CCN(C(=O)c3cccs3)CC2)c2cccnc21` | 21.26 |
| 63 | `CSc1nc2ncc3c(=O)n(C)ccc3n2n1` | -35.75 |
| 64 | `Cc1ncc(CNC(=O)Cc2cccs2)c(C2CCCN2C)n1` (configuration not stated) | -5.815 |
| 65 | `CCCN(Cc1cccc(OCCO)c1)Cc1ccccc1OC` | -17.41 |
| 66 | `[H][C@@]12CCN(C(=O)c3ccc[nH]3)[C@]1([H])CC(=O)N2CCOC` | -9.147 |
| 67 | `[H][C@@]12OCCN(CCOC)[C@@]1([H])CC[C@H]2OCc1cccc(C)n1` | 15.77 |
| 68 | `O=C1N(Cc2cccnc2)CCC12CCCNC2` (configuration not stated) | -25.12 |
| 69 | `COc1ncnc(N(C)C)c1NC(=O)c1cscc1C` | -23.8 |
| 70 | `OC1(CNCCSc2ccccn2)CCCNC1` (configuration not stated) | 9.067 |
| 71 | `CC1(C(=O)NC2CCCC2)CCCN(c2cnccn2)C1` (configuration not stated) | -15.48 |
| 72 | `[H][C@@]12CS(=O)(=O)C[C@]1([H])N(Cc1cnn(-c3ccccc3OC)c1)CCN2C` | -19.52 |
| 73 | `CC(Cn1cccn1)NS(=O)(=O)Cc1ccc(F)cc1` (configuration not stated) | -13.68 |
| 74 | `NC(=O)CN1CCCCC1c1nc(N)ncc1-c1cccc(F)c1` (configuration not stated) | 11.5 |
| 75 | `Cc1occc1C(=O)Nc1ccnc(OC2CCOC2)c1` (configuration not stated) | -4.855 |